{"source": "PubChem BioAssay AID743121 – NCATS, 2013", "assay": "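Partners whose loss is lethal together with topoisomerase I blockade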 (primary screen)", "system": "MDA-MB-231 cells, a human breast cancer line", "reagents": "single siRNA against human genes, 20 nM siRNA (0.8 pmol per well)", "time to read-out": "120 h (drug added 48 h after transfection, read 72 h later)", "treatment": "camptothecin 20 nM (about EC30) for 72 h; vehicle 0.1% DMSO in parallel plates", "measurement": "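Cell viability by ATP luminescence (CellTiter-Glo) as % of non-targeting siRNA wells, and the log2 ratio of viability without drug over viability with camptothecin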", "scale": "log2 vehicle/camptothecin viability: higher = stronger sensitisation to camptothecin", "rule for the call": "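Each gene scored by redundant siRNA activity (RSA) over its individual siRNA ratios; a gene is called active at p < 0.001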", "note": "This is a random part of about 26,000 deposited reagents. In the full data, 167 (0.63%) got an active call. 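Calls are per gene from RSA p-values that are not deposited; an individual active-marked siRNA can sensitise only weakly.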 Unmarked entries are inactive. Reagents against one gene are numbered here. Further read-outs or replicates are left out here."}
{"gene knocked down": "RGS6", "reagent no.": 1, "log2 vehicle/camptothecin viability": -0.135}
{"gene knocked down": "RGS6", "reagent no.": 2, "log2 vehicle/camptothecin viability": 0.0176}
{"gene knocked down": "RGS6", "reagent no.": 3, "log2 vehicle/camptothecin viability": 0.00625}
{"gene knocked down": "RGS6", "reagent no.": 4, "log2 vehicle/camptothecin viability": -0.266}
{"gene knocked down": "GATM", "reagent no.": 1, "log2 vehicle/camptothecin viability": -0.0544}
{"gene knocked down": "GATM", "reagent no.": 2, "log2 vehicle/camptothecin viability": 0.326}
{"gene knocked down": "GATM", "reagent no.": 3, "log2 vehicle/camptothecin viability": -0.174}
{"gene knocked down": "WWP2", "reagent no.": 1, "log2 vehicle/camptothecin viability": -0.0924}
{"gene knocked down": "WWP2", "reagent no.": 2, "log2 vehicle/camptothecin viability": -0.164}
{"gene knocked down": "WWP2", "reagent no.": 3, "log2 vehicle/camptothecin viability": -0.114}
{"gene knocked down": "WWP2", "reagent no.": 4, "log2 vehicle/camptothecin viability": -0.129}
{"gene knocked down": "WWP2", "reagent no.": 5, "log2 vehicle/camptothecin viability": -0.248}
{"gene knocked down": "WWP2", "reagent no.": 6, "log2 vehicle/camptothecin viability": -0.36}
{"gene knocked down": "WWP2", "reagent no.": 7, "log2 vehicle/camptothecin viability": -0.2}
{"gene knocked down": "WWP2", "reagent no.": 8, "log2 vehicle/camptothecin viability": -0.165}
{"gene knocked down": "RAB38", "reagent no.": 1, "log2 vehicle/camptothecin viability": -0.143}
{"gene knocked down": "RAB38", "reagent no.": 2, "log2 vehicle/camptothecin viability": 0.132}
{"gene knocked down": "RAB38", "reagent no.": 3, "log2 vehicle/camptothecin viability": 0.24}
{"gene knocked down": "RAB38", "reagent no.": 4, "log2 vehicle/camptothecin viability": -0.224}
{"gene knocked down": "SKP1", "reagent no.": 1, "log2 vehicle/camptothecin viability": 0.605}
{"gene knocked down": "SKP1", "reagent no.": 2, "log2 vehicle/camptothecin viability": 0.168}
{"gene knocked down": "SKP1", "reagent no.": 3, "log2 vehicle/camptothecin viability": -0.333}
{"gene knocked down": "SKP1", "reagent no.": 4, "log2 vehicle/camptothecin viability": -0.364}
{"gene knocked down": "SSTR2", "reagent no.": 1, "log2 vehicle/camptothecin viability": -0.235}
{"gene knocked down": "SSTR2", "reagent no.": 2, "log2 vehicle/camptothecin viability": -0.113}
{"gene knocked down": "SSTR2", "reagent no.": 3, "log2 vehicle/camptothecin viability": 0.0634}
{"gene knocked down": "SSTR2", "reagent no.": 4, "log2 vehicle/camptothecin viability": -0.463}
{"gene knocked down": "MCOLN1", "reagent no.": 1, "log2 vehicle/camptothecin viability": -0.173}
{"gene knocked down": "MCOLN1", "reagent no.": 2, "log2 vehicle/camptothecin viability": 0.139}
{"gene knocked down": "MCOLN1", "reagent no.": 3, "log2 vehicle/camptothecin viability": -0.148}
{"gene knocked down": "MCOLN1", "reagent no.": 4, "log2 vehicle/camptothecin viability": -0.101}
{"gene knocked down": "MARS1", "reagent no.": 1, "log2 vehicle/camptothecin viability": -0.123}
{"gene knocked down": "MARS1", "reagent no.": 2, "log2 vehicle/camptothecin viability": -0.42}
{"gene knocked down": "MARS1", "reagent no.": 3, "log2 vehicle/camptothecin viability": -0.0713}
{"gene knocked down": "MARS1", "reagent no.": 4, "log2 vehicle/camptothecin viability": -0.0661}
{"gene knocked down": "CD3D", "reagent no.": 1, "log2 vehicle/camptothecin viability": 0.191}
{"gene knocked down": "CD3D", "reagent no.": 2, "log2 vehicle/camptothecin viability": 0.267}
{"gene knocked down": "CD3D", "reagent no.": 3, "log2 vehicle/camptothecin viability": -0.301}
{"gene knocked down": "CD3D", "reagent no.": 4, "log2 vehicle/camptothecin viability": -0.0811}
{"gene knocked down": "PDGFA", "reagent no.": 1, "log2 vehicle/camptothecin viability": -0.0528}
{"gene knocked down": "PDGFA", "reagent no.": 2, "log2 vehicle/camptothecin viability": -0.213}
{"gene knocked down": "PDGFA", "reagent no.": 3, "log2 vehicle/camptothecin viability": 0.527}
{"gene knocked down": "PDGFA", "reagent no.": 4, "log2 vehicle/camptothecin viability": -0.163}
{"gene knocked down": "CACHD1", "reagent no.": 1, "log2 vehicle/camptothecin viability": 0.531}
{"gene knocked down": "CACHD1", "reagent no.": 2, "log2 vehicle/camptothecin viability": -0.426}
{"gene knocked down": "CACHD1", "reagent no.": 3, "log2 vehicle/camptothecin viability": -0.242}
{"gene knocked down": "CACHD1", "reagent no.": 4, "log2 vehicle/camptothecin viability": -0.311}

6 neighbouring entries from above, quoted:
{"gene knocked down": "CD3D", "reagent no.": 2, "log2 vehicle/camptothecin viability": 0.267}
{"gene knocked down": "CD3D", "reagent no.": 3, "log2 vehicle/camptothecin viability": -0.301}
{"gene knocked down": "CD3D", "reagent no.": 4, "log2 vehicle/camptothecin viability": -0.0811}
{"gene knocked down": "PDGFA", "reagent no.": 1, "log2 vehicle/camptothecin viability": -0.0528}
{"gene knocked down": "PDGFA", "reagent no.": 2, "log2 vehicle/camptothecin viability": -0.213}
{"gene knocked down": "PDGFA", "reagent no.": 3, "log2 vehicle/camptothecin viability": 0.527}
